Laboratory results from article PMC5673645.
These are yes or no findings as the source states them, for the method shown. Binding seen in cells or lysates may run through a third protein. Some results given as binding are weak or reduced against the parent protein; the word gives no strength. For some assays here: Sequences can lack the tags named with a protein.

Columns and labels:
[1] = molecular target: T1, FAR-RED … 219/JASMONATE … 1 (FIN219/JAR1), endogenous in wild-type Col-0 seedlings (Arabidopsis thaliana (endogenous in Col-0 seedlings)) (UniProt Q9SKE2); experiment: co-IP; 2 mg protein extract of Col-0 (Wt), fin219-2 and pGR219 seedlings grown under simulated shade, immunoprecipitated with FIN219 monoclonal antibodies; beads 4°C for 4 h, washed three times with grinding buffer (50 mM Tris-HCl pH 5.7, 150 mM NaCl, 10 mM MgCl2, 0.1% BSA, 0.1% NP-40, MG132); blots probed with FIN219 and PHYA monoclonal and COP1 polyclonal antibodies
T1 sequence: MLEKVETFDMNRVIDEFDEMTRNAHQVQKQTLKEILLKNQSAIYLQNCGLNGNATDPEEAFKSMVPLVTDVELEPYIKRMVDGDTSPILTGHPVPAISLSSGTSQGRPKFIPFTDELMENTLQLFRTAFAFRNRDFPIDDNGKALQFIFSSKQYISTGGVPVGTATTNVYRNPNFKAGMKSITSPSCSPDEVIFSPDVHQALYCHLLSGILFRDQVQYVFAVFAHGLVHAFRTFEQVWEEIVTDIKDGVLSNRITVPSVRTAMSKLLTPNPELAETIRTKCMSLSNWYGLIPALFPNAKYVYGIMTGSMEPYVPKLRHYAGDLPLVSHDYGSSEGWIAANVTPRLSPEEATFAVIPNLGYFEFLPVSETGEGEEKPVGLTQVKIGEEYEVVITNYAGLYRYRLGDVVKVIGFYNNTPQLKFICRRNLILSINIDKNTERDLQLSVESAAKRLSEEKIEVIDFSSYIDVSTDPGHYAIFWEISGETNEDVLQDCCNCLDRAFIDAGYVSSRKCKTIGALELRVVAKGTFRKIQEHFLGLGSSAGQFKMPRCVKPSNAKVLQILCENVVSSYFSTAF

[2] = molecular target: T2, FIN219 overexpressed from the glucocorticoid-inducible transgene pGR:FIN219 (line pGR219, fin219-2 background) (Arabidopsis thaliana) (UniProt Q9SKE2); experiment: as above
T2 sequence: T1 sequence

B1: phytochrome A (phyA) (receptor, UniProt P14712 1-1122)
chain: MSGSRPTQSSEGSRRSRHSARIIAQTTVDAKLHADFEESGSSFDYSTSVRVTGPVVENQPPRSDKVTTTYLHHIQKGKLIQPFGCLLALDEKTFKVIAYSENASELLTMASHAVPSVGEHPVLGIGTDIRSLFTAPSASALQKALGFGDVSLLNPILVHCRTSAKPFYAIIHRVTGSIIIDFEPVKPYEVPMTAAGALQSYKLAAKAITRLQSLPSGSMERLCDTMVQEVFELTGYDRVMAYKFHEDDHGEVVSEVTKPGLEPYLGLHYPATDIPQAARFLFMKNKVRMIVDCNAKHARVLQDEKLSFDLTLCGSTLRAPHSCHLQYMANMDSIASLVMAVVVNEEDGEGDAPDATTQPQKRKRLWGLVVCHNTTPRFVPFPLRYACEFLAQVFAIHVNKEVELDNQMVEKNILRTQTLLCDMLMRDAPLGIVSQSPNIMDLVKCDGAALLYKDKIWKLGTTPSEFHLQEIASWLCEYHMDSTGLSTDSLHDAGFPRALSLGDSVCGMAAVRISSKDMIFWFRSHTAGEVRWGGAKHDPDDRDDARRMHPRSSFKAFLEVVKTRSLPWKDYEMDAIHSLQLILRNAFKDSETTDVNTKVIYSKLNDLKIDGIQELEAVTSEMVRLIETATVPILAVDSDGLVNGWNTKIAELTGLSVDEAIGKHFLTLVEDSSVEIVKRMLENALEGTEEQNVQFEIKTHLSRADAGPISLVVNACASRDLHENVVGVCFVAHDLTGQKTVMDKFTRIEGDYKAIIQNPNPLIPPIFGTDEFGWCTEWNPAMSKLTGLKREEVIDKMLLGEVFGTQKSCCRLKNQEAFVNLGIVLNNAVTSQDPEKVSFAFFTRGGKYVECLLCVSKKLDREGVVTGVFCFLQLASHELQQALHVQRLAERTAVKRLKALAYIKRQIRNPLSGIMFTRKMIEGTELGPEQRRILQTSALCQKQLSKILDDSDLESIIEGCLDLEMKEFTLNEVLTASTSQVMMKSNGKSVRITNETGEEVMSDTLYGDSIRLQQVLADFMLMAVNFTPSGGQLTVSASLRKDQLGRSVHLANLEIRLTHTGAGIPEFLLNQMFGTEEDVSEEGLSLMVSRKLVKLMNGDVQYLRQAGKSSFIITAELAAANK
binding [1]: binds
binding [2]: binds
